In patent publication US9080197B2, “Equol level regulator” (priority 2005, dated 2015):
Some results were stated once for a whole list of compounds, not compound by compound.

Test system: feces of an equol producer (microorganisms having conversion ability to equol)
Assay: Effect of carbohydrates upon equol production in anaerobic culture of feces of an equol producer with daidzein
Format: cell-based
Settings: sample containing no carbohydrate taken as 100%; carbohydrate 1%
Excerpt: The equol concentration regulating activity of a carbohydrate can be checked by taking feces from a human having ability to produce equol (equol producer), adding daidzein serving as a substrate for equol and a target carbohydrate to the feces thus taken, culturing the feces, determining the concentration of equol in the culture medium and fitting the determined equol concentration to the following equation in comparison with the concentration of equol in a culture medium containing no carbohydrate. Equal concentration regulating activity (%)=(equol concentration of a culture medium containing a target carbohydrate)/(equol concentration of a culture medium containing no carbohydrate)×100
Fresh feces of an equol producer were suspended in a dilute solution (10-fold by volume) containing 0.00255% of KH2PO4, 0.00255% of K2HPO4, 0.006% of NaCl, […] of (NH4)2SO4, 0.000255% of CaCl2, 0.000255% of MgSO4, 0.1% of a 0.1% resazurin solution, 2.2% of an 8% Na2CO3 solution and 0.05% of L-cysteine hydrochloride by use of glass beads (φ 3 mm) in anaerobic conditions and solid matter was removed by use of sterilized gauze. The solution was centrifuged at 8,000 rpm for 10 minutes. […]
Daidzein and equol standard products were poured in the aforementioned conditions to form calibration curves, respectively. In this manner, daidzein and equol concentrations of the samples were determined. […]

Inulin [reference compound]
daidzein-to-equol conversion rate: ≤ 50%
